From US20050215770A1
Results are given in words; binding and its absence hold for the method and conditions named. Some entries that bind do so weakly or less than the wild type. Sequences can lack the tags named with a protein. One block for each binder: values may come before it.

Target: T1, Recombinant soluble human Flag-tagged NogoR (amino acids 1 to 309 of SEQ ID NO:2) (human) (UniProt Q9BZR6)
T1 sequence (chain, biotinylated with Sulfo-NHS-LC-Biotin): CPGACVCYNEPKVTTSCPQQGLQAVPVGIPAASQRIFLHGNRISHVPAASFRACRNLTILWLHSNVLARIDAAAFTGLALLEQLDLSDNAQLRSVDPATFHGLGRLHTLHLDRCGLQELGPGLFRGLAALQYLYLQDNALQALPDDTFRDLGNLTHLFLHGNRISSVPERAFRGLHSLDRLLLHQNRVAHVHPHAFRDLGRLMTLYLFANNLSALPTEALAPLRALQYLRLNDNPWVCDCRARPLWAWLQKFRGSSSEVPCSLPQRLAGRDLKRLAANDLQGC
Assay: ECL phage screen (Example 1)

B2: NGF1C10 (scFv)
scFv: EVQLVQSGAEVKKPGESLKISCKGSGYNITNHWIAWVRQMPGKGLEWMGMIYPDDSDTRYSPSFQGQVTMSADKSINTAHLQWRSLKASDTAMYYCARHAHYDGSGYYYFDYWGKGTMVTVSSGGGGSGGGGSGGGGSAQSVLTQPPSVSGAPGQRVTISCTGSRSNIGAGYDVHWYQQLPGTAPKVLIFGNSNRPSGVLDRFSGSKSGTSASLAITGLQAEDEADYYCRSYDSSMSGSRVFGTGTKVTVLG
binding: binds

B6: NGF1E09 (scFv)
scFv: EVQLVETGAEVRKPGSSVKVSCKASGGIFKKYAFSWVRQAPGQGLEWLGRTIPSIGNNNYIQSLKGRVTLTADESTNTVYMDLRNLRSEDTAIYFCAGAPKRFGESPNLWGRGTLVTVSSGGGGSGGGGSGGGGSAQAVVIQEPSLSVSPGGTVTLTCGLSSGSVSTTNYPTWYQQTPGQSPRTVIYDTYTRSSGVPDRFSGSILGNKAALTITGAQADDESDYYCAFYLGEGISVFGGGTKLTVLG
binding: binds

B7: NGF1B09 (scFv)
scFv: EVQLVQSGAEVKKSGSSVKVSCKASGDIFTNYAINWVRQAPGQGLEWMGRILPLFGTTNYAQRFQGRITITADESTGTAYMELSSLKSDDTAVYYCARPLSGDYYDTSGYHWWGKGTLVTVSSGGGGSGGGGSGGGGSAQSVLTQPPSASGTPGQRVTISCSGRSGNIGTNAVNWYQQLPGAAPKLIIYSNSQRPSGVPHRFSASRSGTSASLAISGLQSEDEADYYCSAWDDSLDGVVFGGGTKVTVLG
binding: binds

B9: NGF1B02 (scFv)
scFv: EVQLVQSGAEVKKPGSSVKVSCKASGDTSSEYSITWVRQVPGQGLEWMGGIIPIFGATYYAQNFQGRVTISADESTSTAYMELGSLRSGDTAVYYCATVIPPTIGGVTHDSEGMDVWGRGTLVTVSSGGGGSGGGGSGGGGSAQSVLTQPPSASGTPGQRVTISCSGSSSNIGSNYVYWYQQLPGTAPKLLIYRNNQRPSGVPDRFSGSKSGTSASLAISGLRSEDEADYYCAAWDDGHNGWVFGGGTKVTVLG
binding: binds

B10: NGF1B03 (scFv)
scFv: EVQLVQSGAEVKKPGESLRISCKGSGYSFSSYWISWVRQVPGKGLEWMGRIDPSDSYTNYSPSFQGHVTISADKSISTAYLHWSSLKASDTAMYYCATLASADTGMVTDYKYYDMDVWGRGTLVTVSSGGGGSGGGGSGGGGSAQSVVTQPPSVSAAPGQKVTISCSGSNSNIGKNYVSWYQQLPGTAPKLLISDNNARPSGIPDRFSGSKSGASGTLDITGLQTGDEAAYYCKSWDSSLRAEVFGGGTKLTVLG
binding: binds

B12: NGF1A05 (scFv)
scFv: EVQLVQSGGGLVQPGGSLRLSCAASGFGFSSYWMNWVRLAPGKGLEWVASIKQDGSEMFYVDSVKGRFTISRDNAKNSLSLQMNSLRAEDTAVYYCARDLVRITLVGVITKSYGMDVWGRGTMVTVSSGGGGSGGGGSGGGGSALDVVMTQSPDSLAVSLGERATINCKSSQSVLYSSNNQNYLAWYQQRPGQPPKMLIYGASTRASGAPDRYSGGGSGTDFTLTISSLQPEDVAVYYCQQYYSLPITFGQGTRLEIKR
binding: binds

B13: NGF1D09 (scFv)
scFv: QLQLQESGSGLVKPSQTLSLTCAVSGGSISSGDYSWSWIRQPPGKGLEWIGYIYHSGSTYYNPSLKSRVTISIDRSKNQFSLKLSSVTAADTAVYYCARVGDYKEIDAFDIWGKGTLVTVSSGGGGSGGGGSGGGGSAQPVLTQPPSASGTPGQRVTISCSGSSSNIGTNTVNWYQQLPGTAPKLLIYSNTQRPSGVPDRFSGSKSGTSASLAISGLQSEDEADYYCGAWDDSLISGVFGGGTKLTVLG
binding: binds

Further lines, results first:

binding: binds
B1: NGF1H06 (scFv)
scFv: QVQLQQSGPGLVKPSETLSLTCTVSGDSITSYYWSWVRQPPGKTLEWIGYIFDTRTTKYNPSLKSRVTISADTSKNQFSLKLSSVTAADTAVYYCARDAGTIFDYWGQGTMVTVSSGGGGSGGGGSGGGGSAQSVLTQPPSVSVAAGQTARITCGEANIGRRSVHWYQRRPGQAPLMVIYYDTARRSGIPERFSGSNSGDTATLTISRVEAGDEADYYCQAWDFSSDHPVFGGGTKVTVLG

binding: binds
B3: NGF2E11 (scFv)
scFv: QVQLVQSGGGVVQPGRSLRLSCAASGLSFSSYGMHWVRQAPGKGLEWVAVIWFDGSNKYYADSVKGRFTISRDTSKNTLYLQMNSLRVEDTAVYYCAGEVRGSFGEFDYWGRGTMVTVSSGGGGSGGGGSGGGGSAQSVLTQPPSVSVAPGKTARITCGGNNVESKSVQWYQQKSGQAPVLVIYYNSYRPSGIPERFSGSNSGNTATLTISRVEAGDAADYYCQVWDSTTDHYVFGSGTKVTVLG

binding: binds
B4: NGF1H02 (scFv)
scFv: QVQLVQSGGGLLQPGRSLRLSCAGSGFSFRDHALSWFRQAPGKGLEWVGFIRSKGYGGTTEYAASMAGRLNISRDDSKSIAYLQVNSLKTEDTAVYYCSRDSDYYASSGMGYAFDMWGKGTMVTVSSGGGGSGGGGSGGGGSAQAVLTQPSSVSGAPGQRVTIPCTGSSSNIGAGYGVHWYQQLPGTAPKLLIYDSDKRPSGVPDRFSGSKSGSSGSLAITGLQPEDEADYYCQSYDSSLSGSNVFGTGTKVTVLG

binding: binds
B5: NGF2D02 (scFv)
scFv: EVQLVQSGAEVKKPGSSVKVSCKASGGTLSSYAINWVRQAPGQGLEWMGQIIPMFGTMNYAQKFQGRVTISADESTGTAYMELSSLRYDDTATYYCAREVSGTRNYYYYGLDVWGQGTLVTVSSGGGGSGGGGSGGGGSAQAVLTQPSSVSGAPGQRVTIPCTGSSSNIGAGYDVHWYQHLPGTAPKLLIYGNINRPSGVPDRFSGSKSGTSASLAITGLQAEDEADYYCQSYDNRLSVSVVFGGGTQLTVLS

binding: binds
B8: NGF2E08 (scFv)
scFv: QVQLQESGPGLVRPSETLSLTCTVSGSSVTSPYYWAWVRQPPGKALEWIASIYHSGSTHYNPSLKSRVTVSMDTSNNRFSLKVTSVTVTDTAVYYCARHASSYYGSFVQYHYYGLQVWGKGTLVTVSSGGGGSGGGGSGGGGSALVVVMTQSPVSLPVTRGQPASISCRSTEGLVYSDGNTYLNWFQQRPGQPPRRLVYQVSRRDPGVPDRFSGSGSGTDFTLEISRVEAEDLGIYFCMQGTHWPYTFGQGTKVEIKR

binding: binds
B11: NGF2D08 (scFv)
scFv: QLQLQESGPGLVKPSETLSLTCDVSGSSISSAYYWGWVRHSPGKGLEWIGSSYNNGPAYYNPSLIRRVTTSRDTSKNQVSLKMTSMTAADTAVYYCARGLRDSSGYYFGGYYFDLWGQGTLVTVSSGGGGSGGGGSGGGGSAQAVLTQPSSLSASPGALASLTCTLRSGINVTSYRIYWHQQKPGSPPQYLLRYKSDSDKQQGSGVPSRFSGSKDASANAGILLISGLQSEDEADYYCLIWHNSAVVFGGGTKLTVLG

binding: binds
B14: NGF1G03 (scFv)
scFv: QVQLQESGPGLVKPSETLSLTCTVSGDSIGSSIYYWAWIRQPPGKGLEWIGRIYYSGTTNYNPSLKSRVTMSVDTSKNQFSLKLSSVTAADTAVYYCARSKGTKWERREFDYWGRGTMVTVSSGGGGSGGGGSGGGGSAQAVLTQPSSASGTPGQTVTISCSGSSSNIGSNPAHWYQQFPGTAPTLIIYYDGRRPSGVPDRFSGSKSGTSASLAISGLQSEDEADFYCASWDDNLNEYVFGTGTKVTVLG
